These are yes or no findings as the source states them, for the method shown. Binding seen in cells or lysates may run through a third protein. Here binding means that the protein was enriched with, or labelled near, the bait; the list need not be complete. Values belong to the molecule of their own block, whether it stands above or below them.
What was measured:
[1] = molecular target: androgen receptor (human (endogenous in MCF7Aro-LetR and MCF7)) (UniProt P10275); assay: affinity purification with mass spectrometry
[2] = molecular target: T1, androgen receptor (human (endogenous in MCF7Aro-LetR and MCF7)), P10275; assay: affinity purification with mass spectrometry; details: remark: other sources report otherwise
T1 chain: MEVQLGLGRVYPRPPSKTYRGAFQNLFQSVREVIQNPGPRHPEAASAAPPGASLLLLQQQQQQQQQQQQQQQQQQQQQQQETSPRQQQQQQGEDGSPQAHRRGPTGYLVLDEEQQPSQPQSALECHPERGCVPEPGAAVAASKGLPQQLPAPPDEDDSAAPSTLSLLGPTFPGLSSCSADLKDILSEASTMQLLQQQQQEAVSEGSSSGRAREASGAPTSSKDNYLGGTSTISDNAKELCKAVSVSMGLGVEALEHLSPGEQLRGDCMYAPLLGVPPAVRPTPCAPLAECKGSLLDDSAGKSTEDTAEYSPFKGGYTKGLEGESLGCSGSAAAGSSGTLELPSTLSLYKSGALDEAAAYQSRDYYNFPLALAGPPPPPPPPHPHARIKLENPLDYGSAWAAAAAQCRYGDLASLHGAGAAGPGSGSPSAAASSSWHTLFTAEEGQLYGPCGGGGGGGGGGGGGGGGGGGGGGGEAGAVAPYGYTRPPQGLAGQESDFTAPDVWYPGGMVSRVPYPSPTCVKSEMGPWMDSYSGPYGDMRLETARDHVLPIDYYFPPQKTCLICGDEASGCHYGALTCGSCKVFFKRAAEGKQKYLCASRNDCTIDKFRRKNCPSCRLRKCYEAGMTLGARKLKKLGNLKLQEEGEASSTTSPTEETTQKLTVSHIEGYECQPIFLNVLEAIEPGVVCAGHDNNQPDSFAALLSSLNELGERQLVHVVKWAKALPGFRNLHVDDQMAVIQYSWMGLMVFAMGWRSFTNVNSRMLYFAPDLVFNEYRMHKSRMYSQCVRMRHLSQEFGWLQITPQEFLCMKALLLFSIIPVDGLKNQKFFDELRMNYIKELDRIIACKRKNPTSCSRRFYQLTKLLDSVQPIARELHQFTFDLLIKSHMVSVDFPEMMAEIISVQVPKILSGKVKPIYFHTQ

Sequences of proteins named here, by UniProt entry; tags and fusion partners are left off. Residues count along the entry.
UniProt P35222: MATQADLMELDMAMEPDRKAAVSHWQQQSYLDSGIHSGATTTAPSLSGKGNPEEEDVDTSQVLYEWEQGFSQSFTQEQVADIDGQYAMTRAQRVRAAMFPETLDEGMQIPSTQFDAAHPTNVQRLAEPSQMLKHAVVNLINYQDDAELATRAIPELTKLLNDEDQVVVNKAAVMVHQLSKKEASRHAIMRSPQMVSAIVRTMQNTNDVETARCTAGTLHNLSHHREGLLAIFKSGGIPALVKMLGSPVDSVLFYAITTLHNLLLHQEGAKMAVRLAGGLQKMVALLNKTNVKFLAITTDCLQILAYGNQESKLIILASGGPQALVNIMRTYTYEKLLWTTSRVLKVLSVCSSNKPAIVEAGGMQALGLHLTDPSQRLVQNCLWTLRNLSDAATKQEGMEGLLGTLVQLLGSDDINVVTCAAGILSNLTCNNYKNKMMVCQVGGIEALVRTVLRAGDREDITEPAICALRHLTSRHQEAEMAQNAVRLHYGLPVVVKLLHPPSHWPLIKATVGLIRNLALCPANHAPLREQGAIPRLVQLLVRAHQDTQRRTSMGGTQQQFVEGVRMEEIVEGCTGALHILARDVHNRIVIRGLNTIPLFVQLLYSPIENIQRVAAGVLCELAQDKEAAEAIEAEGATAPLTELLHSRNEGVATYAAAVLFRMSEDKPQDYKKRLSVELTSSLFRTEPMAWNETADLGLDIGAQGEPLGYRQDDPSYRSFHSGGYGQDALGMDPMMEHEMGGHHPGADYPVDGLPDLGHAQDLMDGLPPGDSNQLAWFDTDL
UniProt Q13283: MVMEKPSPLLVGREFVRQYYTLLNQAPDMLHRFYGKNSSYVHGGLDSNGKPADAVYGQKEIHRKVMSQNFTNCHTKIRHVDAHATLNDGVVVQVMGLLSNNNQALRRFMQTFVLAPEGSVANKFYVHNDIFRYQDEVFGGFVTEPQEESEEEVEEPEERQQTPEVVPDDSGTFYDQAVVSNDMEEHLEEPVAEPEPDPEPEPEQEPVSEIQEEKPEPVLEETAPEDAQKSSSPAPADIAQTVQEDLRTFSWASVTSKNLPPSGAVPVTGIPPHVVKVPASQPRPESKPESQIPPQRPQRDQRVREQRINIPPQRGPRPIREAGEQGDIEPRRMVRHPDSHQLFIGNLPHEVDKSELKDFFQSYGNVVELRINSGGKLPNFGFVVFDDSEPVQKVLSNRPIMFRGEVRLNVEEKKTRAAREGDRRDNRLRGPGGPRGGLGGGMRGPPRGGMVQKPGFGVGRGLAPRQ
UniProt P24593, residues 21-272: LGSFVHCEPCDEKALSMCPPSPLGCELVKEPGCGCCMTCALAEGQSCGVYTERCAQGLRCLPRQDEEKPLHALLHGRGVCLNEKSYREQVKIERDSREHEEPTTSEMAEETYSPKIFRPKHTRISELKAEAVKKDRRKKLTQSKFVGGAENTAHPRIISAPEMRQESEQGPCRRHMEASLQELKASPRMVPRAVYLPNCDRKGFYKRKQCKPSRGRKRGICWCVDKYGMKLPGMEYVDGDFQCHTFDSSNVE

- binding [1]: binds
Molecule: Catenin beta-1 (from UniProt P35222 1-781)

- binding [1]: binds
Molecule: G3BP1 (from UniProt Q13283 1-466)

- binding [1]: binds
Molecule: Insulin-like growth factor-binding protein 5 (from UniProt P24593 21-272)

- binding [2]: binds
B1: E3 ubiquitin-protein ligase RING 2, Q99496 1-336 (protein)
chain: MSQAVQTNGTQPLSKTWELSLYELQRTPQEAITDGLEIVVSPRSLHSELMCPICLDMLKNTMTTKECLHRFCADCIITALRSGNKECPTCRKKLVSKRSLRPDPNFDALISKIYPSRDEYEAHQERVLARINKHNNQQALSHSIEEGLKIQAMNRLQRGKKQQIENGSGAEDNGDSSHCSNASTHSNQEAGPSNKRTKTSDDSGLELDNNNAAMAIDPVMDGASEIELVFRPHPTLMEKDDSAQTRYIKTSGNATVDHLSKYLAVRLALEELRSKGESNQMNLDTASEKQYTIYIATASGQFTVLNGSFSLELVSEKYWKVNKPMELYYAPTKEHK
